Reference: PubChem BioAssay AID248 (DTP/NCI, 2004)
The list is a part of this screen's results and no random one: it gathers tests that were run many times, whatever their T/C, doses with no T/C, and many T/C values between a quarter and a half above the control. Other doses and runs of a compound stand elsewhere. T/C: endpoint of the treated group in % of that of the vehicle group. Some doses have a count of surviving animals in place of a T/C: the source files T/C as zero there, which appears to mark a toxic dose or a test without result, not a measured value. Some doses without a T/C left all or most animals alive at the check, yet need not have been tolerated: the source hardly ever lists a survival T/C far under the control, and the zero likely stands for such cases as well. Survivors were counted at the toxicity check, usually on the fifth day, unless a day is given; later deaths do not show. Schedules are NCI's codes, taken here to give the interval after Q, in days (D) or hours (H), and the number of doses after X. Some entries hold several experiments; the results are listed from low to high. Some schedule codes hold Z or #, which are not explained here. Where survival is the endpoint, the PubChem record calls one and a half times the control and up active, and a quarter to a half above the control has no call in these data; cut-offs in other NCI protocols can differ.

Test system: L1210 leukemia ip in BDF1 mice, survival T/C
Experiment: NCI In Vivo Anticancer Drug Screen. Data for tumor model L1210 Leukemia (intraperitoneal) in B6D2F1 (BDF1) mice
Settings: T/C endpoint: mean survival time, higher T/C = longer survival
[1] = dose: 100.0 mg/kg/injection, schedule: Q01DX001 (ip), vehicle: carboxymethylcellulose (CMC)
[2] = dose: 100.0 mg/kg/injection, schedule: Q01DX009 (ip), vehicle: Klucel (hydroxypropylcellulose) (HPC)
[3] = dose: 200.0 mg/kg/injection, schedule: Q04DX003 (ip), vehicle: Klucel (hydroxypropylcellulose) (HPC)
[4] = dose: 400.0 mg/kg/injection, schedule: Q01DX009 (ip), vehicle: Klucel (hydroxypropylcellulose) (HPC)
[5] = dose: 400.0 mg/kg/injection, schedule: Q01DX009 (ip), vehicle: saline with Tween-80
[6] = dose: 200.0 mg/kg/injection, schedule: Q01DX009 (ip), vehicle: saline with Tween-80

COc1cc(C=Nc2cc(Br)cc(Br)c2)ccc1N(CCCl)CCCl
T/C (dose: 5.25 mg/kg/injection, schedule: Q01DX009 (ip), vehicle: other): 133 % of control
T/C (dose: 10.5 mg/kg/injection, schedule: Q01DX009 (ip), vehicle: other): 128 and 141 % of control
T/C (dose: 18.0 mg/kg/injection, schedule: Q01DX009 (ip), vehicle: other): 134 % of control
T/C (dose: 30.0 mg/kg/injection, schedule: Q01DX009 (ip), vehicle: other): 141 % of control
T/C (dose: 50.0 mg/kg/injection, schedule: Q01DX001 (ip), vehicle: other): 126 % of control
T/C [1]: 125 % of control
survivor count (dose: 266.0 mg/kg/injection, schedule: Q01DX001 (ip), vehicle: carboxymethylcellulose (CMC)): 3 of 6
survivor count (dose: 400.0 mg/kg/injection, schedule: Q01DX001 (ip), vehicle: carboxymethylcellulose (CMC)): 0 of 6 and 2 of 6
survivor count (dose: 600.0 mg/kg/injection, schedule: Q01DX001 (ip), vehicle: carboxymethylcellulose (CMC)): 0 of 6

C=CCNC(=S)NNC(=S)NNc1ccccc1
survivor count (dose: 400.0 mg/kg/injection, schedule: Q01DX009 (ip), vehicle: acetone): 6 of 6

CCCCCCCN=C(N)c1ccc(C(=O)OC2CCCCC2)cc1
survivor count (dose: 200.0 mg/kg/injection, schedule: Q01DX001 (ip), vehicle: saline): 6 of 6
survivor count (dose: 400.0 mg/kg/injection, schedule: Q01DX001 (ip), vehicle: saline): 0 of 6

BrCc1ccc(CBr)c(Br)c1
survivor count [2]: 0 of 6
survivor count [3]: 6 of 6

O=C1C=CC(=O)N1C(c1ccccc1)c1ccccc1
survivor count [2]: 3 of 3
survivor count (dose: 100.0 mg/kg/injection, schedule: Q04DX002 (ip), vehicle: Klucel (hydroxypropylcellulose) (HPC)): 3 of 3
survivor count (dose: 200.0 mg/kg/injection, schedule: Q01DX009 (ip), vehicle: Klucel (hydroxypropylcellulose) (HPC)): 0 of 3
survivor count [4]: 0 of 3
survivor count (dose: 400.0 mg/kg/injection, schedule: Q04DX002 (ip), vehicle: Klucel (hydroxypropylcellulose) (HPC)): 2 of 3

NC1(C(=O)O)C2CC3CC(C2)CC1C3 (centres undefined)
survivor count (dose: 400.0 mg/kg/injection, schedule: Q04DX003 (ip), vehicle: alcohol): 6 of 6

O=C(NCCC[P+](c1ccccc1)(c1ccccc1)c1ccccc1)OCc1ccccc1
survivor count (dose: 50.0 mg/kg/injection, schedule: Q01DX009 (ip), vehicle: carboxymethylcellulose (CMC)): 0 of 3 and 0 of 6
survivor count [1]: 0 of 3 and 1 of 6
survivor count (dose: 100.0 mg/kg/injection, schedule: Q04DX003 (ip), vehicle: carboxymethylcellulose (CMC)): 0 of 3 and 0 of 6

S=c1[nH]c2nc(Cl)c(Cl)nc2[nH]1
survivor count [5]: 0 of 6
survivor count (dose: 400.0 mg/kg/injection, schedule: Q04DX003 (ip), vehicle: saline with Tween-80): 0 of 6

NC(N)=N/N=C/c1cccc(Cl)c1Cl
survivor count (dose: 62.5 mg/kg/injection, schedule: Q01DX Z (ip), vehicle: saline): 3 of 6
survivor count (dose: 125.0 mg/kg/injection, schedule: Q01DX Z (ip), vehicle: saline): 3 of 6
survivor count (dose: 250.0 mg/kg/injection, schedule: Q01DX Z (ip), vehicle: saline): 0 of 6
survivor count (dose: 500.0 mg/kg/injection, schedule: Q01DX Z (ip), vehicle: saline): 0 of 6

CCCCNC(=O)c1c(Cl)c(Cl)c(Cl)c(Cl)c1C(=O)O
survivor count (dose: 400.0 mg/kg/injection, schedule: Q04DX002 (ip), vehicle: saline with Tween-80): 2 of 3

CCCCSCCOC(=O)C1C2CCC(O2)C1C(=O)O (centres undefined)
survivor count (dose: 50.0 mg/kg/injection, schedule: Q04DX003 (ip), vehicle: Klucel (hydroxypropylcellulose) (HPC)): 0 of 6
survivor count (dose: 100.0 mg/kg/injection, schedule: Q04DX003 (ip), vehicle: Klucel (hydroxypropylcellulose) (HPC)): 0 of 6
survivor count [3]: 0 of 6
survivor count (dose: 400.0 mg/kg/injection, schedule: Q04DX003 (ip), vehicle: Klucel (hydroxypropylcellulose) (HPC)): 0 of 6

[O-][n+]1ccnc(C(Cl)(Cl)Cl)c1Cl
survivor count (dose: 6.25 mg/kg/injection, schedule: Q01DX009 (ip), vehicle: other): 2 of 3
survivor count (dose: 12.5 mg/kg/injection, schedule: Q01DX009 (ip), vehicle: other): 0 of 3
survivor count (dose: 25.0 mg/kg/injection, schedule: Q01DX009 (ip), vehicle: other): 0 of 3
survivor count (dose: 50.0 mg/kg/injection, schedule: Q01DX009 (ip), vehicle: other): 0 of 3
survivor count (dose: 100.0 mg/kg/injection, schedule: Q01DX009 (ip), vehicle: other): 0 of 3
survivor count (dose: 200.0 mg/kg/injection, schedule: Q01DX009 (ip), vehicle: other): 0 of 3

Nc1cccc(OCCCCCOc2cccc(N)c2)c1
survivor count (dose: 50.0 mg/kg/injection, schedule: Q01DX009 (ip), vehicle: Klucel (hydroxypropylcellulose) (HPC)): 3 of 3

COc1ccc(C(O)C(C)N)cc1 (centres undefined)
survivor count (dose: 300.0 mg/kg/injection, schedule: Q01DX001 (ip), vehicle: saline): 3 of 6

CCC(CC)(COC(=O)c1ccc(N)cc1)C1CCCCC1
survivor count (dose: 75.0 mg/kg/injection, schedule: Q01DX001 (ip), vehicle: carboxymethylcellulose (CMC)): 6 of 6
survivor count (dose: 300.0 mg/kg/injection, schedule: Q01DX001 (ip), vehicle: carboxymethylcellulose (CMC)): 1 of 6

N#Cc1cn(C2OC(CO)C(O)C2O)c2ncnc([Se]Cc3ccc([N+](=O)[O-])cc3)c12 (centres undefined)
survivor count (dose: 100.0 mg/kg/injection, schedule: Q01DX005 (ip), vehicle: saline): 0 of 6
survivor count (dose: 200.0 mg/kg/injection, schedule: Q01DX005 (ip), vehicle: saline): 0 of 6

N=C(N)S(=O)O
survivor count [6]: 6 of 6
survivor count [5]: 0 of 6

NC(CC[Se]Cc1ccccc1)C(=O)O (centres undefined)
survivor count (dose: 50.0 mg/kg/injection, schedule: Q01DX009 (ip), vehicle: saline with Tween-80): 3 of 6
survivor count (dose: 100.0 mg/kg/injection, schedule: Q01DX009 (ip), vehicle: saline with Tween-80): 0 of 6
survivor count [6]: 0 of 6

O=[N+]([O-])c1cc(S(=O)(=O)F)cc(Cl)c1O
survivor count [4]: 0 of 6

NC(=O)C1C2C=CC(O2)C1C(N)=O (centres undefined)
survivor count (dose: 400.0 mg/kg/injection, schedule: Q04DX002 (ip), vehicle: saline): 1 of 3

Nc1ncnc2c1ccn2C1CCC(CO)C1 (centres undefined)
survivor count (dose: 400.0 mg/kg/injection, schedule: Q01DX001 (ip), vehicle: other): 0 of 4

CN=C(N)c1ccc(N=C(N)c2ccc(N=C(N)c3ccc(NC(=O)Nc4cccc(NC(=O)Nc5ccc(C(N)=Nc6ccc(C(N)=Nc7ccc(C(N)=NC)cc7)cc6)cc5)c4)cc3)cc2)cc1
T/C (dose: 15.0 mg/kg/injection, schedule: Q01DX001 (ip), vehicle: water): 137 % of control
survivor count (dose: 112.0 mg/kg/injection, schedule: Q01DX001 (ip), vehicle: water): 2 of 10 and 4 of 10
survivor count (dose: 150.0 mg/kg/injection, schedule: Q01DX001 (ip), vehicle: water): 1 of 6

CC(=O)Nc1nnc(NC(C)=O)s1
survivor count (dose: 37.5 mg/kg/injection, schedule: Q01DX001 (ip), vehicle: other): 3 of 6
survivor count (dose: 75.0 mg/kg/injection, schedule: Q01DX001 (ip), vehicle: other): 2 of 6
survivor count (dose: 150.0 mg/kg/injection, schedule: Q01DX001 (ip), vehicle: other): 0 of 6
survivor count (dose: 300.0 mg/kg/injection, schedule: Q01DX001 (ip), vehicle: other): 1 of 6

NC(N)=N/N=C/c1ccc(C(=O)O)cc1
survivor count (dose: 480.0 mg/kg/injection, schedule: Q01DX Z (ip), vehicle: saline): 0 of 6

O=[As]O
survivor count (dose: 20.0 mg/kg/injection, schedule: Q01DX015 (ip), vehicle: carboxymethylcellulose (CMC)): 1 of 6
survivor count (dose: 40.0 mg/kg/injection, schedule: Q01DX015 (ip), vehicle: carboxymethylcellulose (CMC)): 0 of 6
